US7361133B2, “Methods of detection utilizing modified bacteriophage” (The Johns Hopkins University, priority 1997, dated 2008)
These are yes or no findings as the source states them, for the method shown. Some entries that bind do so weakly or less than the wild type.

B1: Mag-4.1 phage (peptide, not shown: large carriers)
chain: LNDWFITYI
B2: synthetic HPLC-purified Mag-4.1 peptide (…) (peptide)
peptide: GGGLNDWFITYIGGG

Tests used:
[1] = biological target: functional NMDA receptor channel formed by NR1 and NR2A in HEK cells (UniProt P35439); assay: phage-immunostain of HEK cells cotransfected with NR1 and NR2A
[2] = biological target: functional NMDA receptor channel formed by NR1 and NR2A in HEK cells (UniProt P35439); assay: phage-immunostain of HEK cells transiently expressing NR1 and NR2A
[3] = biological target: functional NMDA receptor channel formed by NR1 and NR2A in HEK cells (UniProt P35439); assay: phage-immunostain of HEK cells expressing NR1 and NR2A, peptide against Mag-4.1 phage

Binder | binding [1] | binding [2] | binding [3]
B1 | binds | binds | –
B2 | – | – | binds
